Measurements reported in patent US20210186964.
For some assays here: A weaker result is weaker than the reference pair of the same experiment. For some assays here: Tags and fusion partners may be left off the protein sequences shown. For some assays here: The exact form of at least one protein or probe is not confirmed. For some assays here: No signal at the amounts used counts as a negative.

Columns and labels:
USP1 = target: T1, USP1 (UniProt O94782); test: EMSA; conditions: 300 nM USP1; shift weaker than fork DNA; purified recombinant protein; protein details: SF9-made or R&D systems E564; label: Cy3
T1 sequence (limits assumed): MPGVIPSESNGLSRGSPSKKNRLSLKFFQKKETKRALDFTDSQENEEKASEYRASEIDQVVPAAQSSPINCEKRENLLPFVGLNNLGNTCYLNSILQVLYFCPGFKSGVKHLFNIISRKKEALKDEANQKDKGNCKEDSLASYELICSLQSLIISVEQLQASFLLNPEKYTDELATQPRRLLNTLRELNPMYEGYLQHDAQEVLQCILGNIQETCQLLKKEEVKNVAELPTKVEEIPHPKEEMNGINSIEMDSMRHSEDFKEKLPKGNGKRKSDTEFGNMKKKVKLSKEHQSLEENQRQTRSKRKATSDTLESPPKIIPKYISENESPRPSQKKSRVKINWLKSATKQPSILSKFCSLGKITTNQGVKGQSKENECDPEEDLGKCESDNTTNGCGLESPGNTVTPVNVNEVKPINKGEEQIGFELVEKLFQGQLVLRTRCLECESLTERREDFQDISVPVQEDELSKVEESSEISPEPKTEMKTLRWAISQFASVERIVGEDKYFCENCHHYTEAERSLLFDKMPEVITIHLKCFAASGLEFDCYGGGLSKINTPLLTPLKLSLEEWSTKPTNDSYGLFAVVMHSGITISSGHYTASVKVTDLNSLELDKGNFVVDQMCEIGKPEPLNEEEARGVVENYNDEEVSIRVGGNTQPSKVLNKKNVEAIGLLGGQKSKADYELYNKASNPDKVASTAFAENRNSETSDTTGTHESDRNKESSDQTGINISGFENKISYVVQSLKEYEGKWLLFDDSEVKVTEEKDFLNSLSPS

USP1/UAF1 complex = test: activity assay; conditions: purified recombinant protein, protein details: SF9-made, R&D systems or Boston Biochem, label: Cy3
[1] = system: USP1-Trunc/UAF1 complex USP1 deletion of regions not conserved with USP12 (includes 270-307); test: activity assay; conditions: Ub-CHOP2, DNA does not stimulate DUB activity, purified recombinant protein, label: Cy3
[2] = target: USP1-Trunc deletion of regions not conserved with USP12 (includes 270-307) (UniProt O94782); test: EMSA; conditions: 0-200 nM USP1-Trunc; purified recombinant protein; protein details: made in SF9 cells or E. coli; label: Cy3; folded or branched DNA

“CCAGTGAATTGTTGCTCGGTACCTGCTAACGGTAATCGG (double strand) [40-mer dsDNA]” was tested, and the binding result (USP1) was “binds more weakly”, the functional effect (USP1/UAF1 complex; Ub-CHOP2 DUB activity maximally stimulated, p<0.0001) was “active” and the functional effect [1] was “not active”.

“CCAGTGAATTGTTGCTCGGTACCTGCTAACGGTAATCGG / CAGCTATGGGACATTCGATACCGAGCAACAATTCACTGG [40-mer fork DNA]” was tested, and the binding result [2] was “no binding”, the functional effect (USP1/UAF1 complex; DUB activity stimulated, saturating at 1:1, Ub-AMC Km 0.79 to 0.33 uM, kcat up 1.3 fold, folded or branched DNA) was “active” and the functional effect ([1]; folded or branched DNA) was “not active”.

For “CCAGTGAATTGTTGCTCGGTACCTGCTAACGGTAATCGG [40-mer ssDNA (top)]”, the functional effect (USP1/UAF1 complex; Ub-CHOP2 DUB activity stimulated vs no DNA, p<0.0001, single-stranded DNA) was “active” and the functional effect ([1]; single-stranded DNA) was “not active”.
